Assay results from article PMC4212580.
Results are given in words; binding and its absence hold for the method and conditions named. In cells and extracts the contact can be indirect. A yes stands for co-enrichment or nearness to the bait. Other partners may have been found. For some of these results: No binding means not detected with the bait.

Chains of the proteins cited; added tags and fusions are not shown.
UniProt Q14240: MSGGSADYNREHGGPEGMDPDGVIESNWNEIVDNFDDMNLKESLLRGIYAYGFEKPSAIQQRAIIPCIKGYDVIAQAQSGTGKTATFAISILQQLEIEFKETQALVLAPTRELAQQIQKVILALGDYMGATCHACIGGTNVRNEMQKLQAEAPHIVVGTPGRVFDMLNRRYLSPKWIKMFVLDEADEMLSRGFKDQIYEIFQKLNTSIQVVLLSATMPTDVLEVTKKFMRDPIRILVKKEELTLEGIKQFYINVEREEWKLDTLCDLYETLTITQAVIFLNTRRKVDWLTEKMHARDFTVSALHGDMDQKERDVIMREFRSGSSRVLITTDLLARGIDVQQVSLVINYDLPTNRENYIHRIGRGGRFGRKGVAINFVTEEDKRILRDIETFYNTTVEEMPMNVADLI
UniProt P60842: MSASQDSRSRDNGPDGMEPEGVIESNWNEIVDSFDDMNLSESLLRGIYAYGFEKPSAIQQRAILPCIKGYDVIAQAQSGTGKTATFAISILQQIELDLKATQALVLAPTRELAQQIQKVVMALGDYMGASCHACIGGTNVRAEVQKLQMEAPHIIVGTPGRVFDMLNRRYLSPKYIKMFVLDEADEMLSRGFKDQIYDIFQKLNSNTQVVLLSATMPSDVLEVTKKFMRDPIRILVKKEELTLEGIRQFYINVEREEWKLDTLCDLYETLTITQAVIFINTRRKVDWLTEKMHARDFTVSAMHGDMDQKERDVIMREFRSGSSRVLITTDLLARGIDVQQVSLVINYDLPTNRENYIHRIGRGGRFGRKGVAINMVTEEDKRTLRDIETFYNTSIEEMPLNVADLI
UniProt Q04637: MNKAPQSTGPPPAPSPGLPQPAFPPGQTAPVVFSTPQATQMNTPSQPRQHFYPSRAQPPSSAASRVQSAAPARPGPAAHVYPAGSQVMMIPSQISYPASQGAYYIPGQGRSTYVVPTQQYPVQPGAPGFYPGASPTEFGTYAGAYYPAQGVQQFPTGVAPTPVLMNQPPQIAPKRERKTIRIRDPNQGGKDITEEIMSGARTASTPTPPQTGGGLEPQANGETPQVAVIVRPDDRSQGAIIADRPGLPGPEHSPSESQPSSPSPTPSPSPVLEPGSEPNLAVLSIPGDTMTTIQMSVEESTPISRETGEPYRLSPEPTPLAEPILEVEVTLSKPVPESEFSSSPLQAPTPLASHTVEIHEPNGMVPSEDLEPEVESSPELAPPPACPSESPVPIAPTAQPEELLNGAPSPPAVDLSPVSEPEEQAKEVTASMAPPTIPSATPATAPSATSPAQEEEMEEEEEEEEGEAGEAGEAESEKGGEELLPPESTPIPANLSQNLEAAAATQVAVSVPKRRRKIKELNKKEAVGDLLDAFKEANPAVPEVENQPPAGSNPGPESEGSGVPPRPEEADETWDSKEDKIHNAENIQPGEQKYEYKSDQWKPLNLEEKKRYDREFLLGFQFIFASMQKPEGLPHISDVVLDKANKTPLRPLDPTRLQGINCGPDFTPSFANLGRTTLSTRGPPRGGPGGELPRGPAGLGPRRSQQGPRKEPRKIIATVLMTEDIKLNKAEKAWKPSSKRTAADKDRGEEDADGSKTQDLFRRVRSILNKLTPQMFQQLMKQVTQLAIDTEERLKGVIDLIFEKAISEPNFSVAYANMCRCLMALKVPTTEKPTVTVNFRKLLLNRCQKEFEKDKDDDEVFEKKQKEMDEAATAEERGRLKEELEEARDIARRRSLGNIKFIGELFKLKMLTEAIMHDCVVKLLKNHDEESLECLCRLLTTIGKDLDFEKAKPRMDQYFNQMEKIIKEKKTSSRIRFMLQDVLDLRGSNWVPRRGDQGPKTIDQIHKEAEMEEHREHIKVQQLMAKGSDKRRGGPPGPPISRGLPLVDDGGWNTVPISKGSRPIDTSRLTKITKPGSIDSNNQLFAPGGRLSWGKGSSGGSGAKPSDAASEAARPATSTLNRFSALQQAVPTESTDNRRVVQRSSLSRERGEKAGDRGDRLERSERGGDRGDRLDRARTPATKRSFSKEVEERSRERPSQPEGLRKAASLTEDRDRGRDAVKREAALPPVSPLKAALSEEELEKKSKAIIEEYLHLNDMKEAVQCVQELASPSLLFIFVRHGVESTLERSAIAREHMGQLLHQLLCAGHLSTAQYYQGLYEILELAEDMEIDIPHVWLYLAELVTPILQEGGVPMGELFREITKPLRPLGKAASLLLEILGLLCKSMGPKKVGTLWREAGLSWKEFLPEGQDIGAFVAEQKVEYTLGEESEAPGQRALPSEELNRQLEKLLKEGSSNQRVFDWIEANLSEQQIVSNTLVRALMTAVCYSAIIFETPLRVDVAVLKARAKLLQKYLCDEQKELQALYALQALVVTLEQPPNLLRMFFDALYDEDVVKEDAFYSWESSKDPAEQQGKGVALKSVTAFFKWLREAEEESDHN
UniProt O43432: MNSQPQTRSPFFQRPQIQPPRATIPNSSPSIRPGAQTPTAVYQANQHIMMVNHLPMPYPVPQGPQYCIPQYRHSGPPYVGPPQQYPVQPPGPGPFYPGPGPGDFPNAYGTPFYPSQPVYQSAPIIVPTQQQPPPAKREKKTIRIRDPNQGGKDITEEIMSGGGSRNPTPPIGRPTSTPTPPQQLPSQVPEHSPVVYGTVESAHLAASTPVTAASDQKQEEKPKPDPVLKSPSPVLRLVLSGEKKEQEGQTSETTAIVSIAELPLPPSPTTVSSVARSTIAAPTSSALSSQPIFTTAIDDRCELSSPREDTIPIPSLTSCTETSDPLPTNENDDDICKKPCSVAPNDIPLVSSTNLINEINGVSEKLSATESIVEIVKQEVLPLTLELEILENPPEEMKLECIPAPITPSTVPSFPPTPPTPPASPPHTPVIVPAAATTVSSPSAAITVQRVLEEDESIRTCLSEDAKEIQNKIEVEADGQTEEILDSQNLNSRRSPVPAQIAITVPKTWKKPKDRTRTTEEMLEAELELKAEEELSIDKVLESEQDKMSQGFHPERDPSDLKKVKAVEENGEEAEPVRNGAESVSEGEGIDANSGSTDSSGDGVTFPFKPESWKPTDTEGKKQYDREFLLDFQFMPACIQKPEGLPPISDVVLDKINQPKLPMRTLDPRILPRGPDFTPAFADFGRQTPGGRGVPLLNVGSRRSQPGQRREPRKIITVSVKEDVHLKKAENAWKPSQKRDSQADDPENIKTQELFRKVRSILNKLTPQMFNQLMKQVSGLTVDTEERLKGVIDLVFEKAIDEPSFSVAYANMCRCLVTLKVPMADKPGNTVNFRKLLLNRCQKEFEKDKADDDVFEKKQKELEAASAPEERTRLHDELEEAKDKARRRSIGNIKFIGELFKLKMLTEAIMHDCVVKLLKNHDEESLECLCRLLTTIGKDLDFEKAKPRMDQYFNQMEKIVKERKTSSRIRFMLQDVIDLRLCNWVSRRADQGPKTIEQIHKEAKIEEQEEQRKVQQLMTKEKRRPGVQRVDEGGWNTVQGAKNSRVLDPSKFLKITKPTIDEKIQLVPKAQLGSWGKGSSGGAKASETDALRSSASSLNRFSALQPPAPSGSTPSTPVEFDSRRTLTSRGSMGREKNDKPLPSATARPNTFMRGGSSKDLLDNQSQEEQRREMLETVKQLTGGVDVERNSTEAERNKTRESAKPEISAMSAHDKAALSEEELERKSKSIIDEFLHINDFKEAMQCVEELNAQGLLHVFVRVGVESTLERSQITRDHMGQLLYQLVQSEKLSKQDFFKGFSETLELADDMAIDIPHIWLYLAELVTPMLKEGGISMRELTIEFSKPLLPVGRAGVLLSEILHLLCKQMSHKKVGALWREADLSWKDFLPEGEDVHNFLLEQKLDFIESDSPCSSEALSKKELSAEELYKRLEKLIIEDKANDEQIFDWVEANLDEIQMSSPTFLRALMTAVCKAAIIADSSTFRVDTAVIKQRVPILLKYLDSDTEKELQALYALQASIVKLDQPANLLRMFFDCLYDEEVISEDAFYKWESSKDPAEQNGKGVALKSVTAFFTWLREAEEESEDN

What was measured:
[1] = biological target: GFP-eIF4AII (eukaryotic translation initiation factor eIF4AII, GFP fused to the N-terminus) (human) (UniProt Q14240); assay: affinity purification with mass spectrometry; SILAC-labelled 293T cells transfected with GFP or GFP-eIF4AI/II; lysate (10 mM TrisCl pH 7.5, 150 mM NaCl, 0.5 mM EDTA, 0.5% NP40, RNase cocktail) on anti-GFP agarose, 4 °C, 2 hr; eluates mixed 1:1:1, LC-MS/MS; hits above 1.96 SD of the sample/mock ratios
[2] = biological target: GFP-eIF4AI (eukaryotic translation initiation factor eIF4AI, GFP fused to the N-terminus) (human) (UniProt P60842); assay: as above

Substance	binding [1]	binding [2]
eIF4GI (from UniProt Q04637 1-1599)	binds	
eIF4GII (from UniProt O43432 1-1585)	binds	binds
hnRNPK (from UniProt P61978 1-463)	no binding	
